{
  "source": "patent US10220046B2",
  "about": "“Compositions and methods for disease treatment using nanoparticle delivered compounds” (THE REGENTS OF THE UNIVERSITY OF MICHIGAN, priority 2014, dated 2019)",
  "system": "genes involved in steroidogenesis in NCI-H295R cells",
  "assay": "Real time RT-PCR of genes involved in steroidogenesis",
  "type": "cell-based, human",
  "settings": "combination with sHDL compared to monotherapy, 24 h; range over the three drugs",
  "method": "RNA from the NCI-H295R cells after drug treatment for 24 h was prepared using Qiagen RNA isolation kit (Qiagen Sciences, Valencia, Calif.). Approximately 500 ng of RNA was reverse transcribed using superscript RT kit from Life Technologies (Grand Island, N.Y.). qPCR was performed in a step-one RT PCR machine using the gene specific primer sets (Table 3) as published (11). Relative gene expression levels were calculated after normalization with internal control.",
  "note": "Some results were stated once for a whole list of compounds, not compound by compound.",
  "data": [
    {"molecule": "Clc1ccc(C(c2ccccc2Cl)C(Cl)Cl)cc1", "note": "(stereo not shown) [mitotane]", "values": [
      {"measurement": "CYP11A1 level, decreased", "value": "0.1-0.5 fold change"},
      {"measurement": "CYP11B1 level, decreased", "value": "0.1-0.64 fold change"},
      {"measurement": "CYP11B2 level, decreased", "value": "0.04-0.52 fold change"},
      {"measurement": "CYP17A1 level, decreased", "value": "0.1-0.58 fold change"},
      {"measurement": "CYP19A1 level, increases", "value": "0.22-4.9 fold changes"},
      {"measurement": "CYP21A2 level, increases", "value": "0.05-2.6 fold changes"},
      {"measurement": "StAR level, increases", "value": "0.18-1.88 fold changes"}
    ]}
  ]
}
